Assay results reported in patent publication US20170151219A1, “ANTIPERSPIRANT AGENT” (OSAKA UNIVERSITY, priority 2014, published 2017).
At least one structure is not confirmed: it was looked up by name or label, or the drawing left a doubt.

Columns and labels:
mTOR = assay: Fluorescent staining of activated (phospho-ser2448) mTOR in mouse hind leg skin after sudorific stimulus; assay type: in vivo; conditions: two minutes after hypodermic injection of stimulating solution 50 μg/μL, vs phosphate buffered saline, FIG. 1, FIG. 2
C57BL6 mouse = assay: Iodine-starch sweat test, internal application, sequential administration (test A, test B); assay type: in vivo

Row | Structure (SMILES) | stained image of the activated mTOR (anti-phospho-mTOR ser2448) (mTOR) | amount of sweating 10 days after withdrawal of oral administration, test B (C57BL6 mouse; 10 days-rest after five days oral 2 mg per 1 kg, FIG. 9) | number of sweat glands stained in black (perspiration), test A (C57BL6 mouse; oral 2 mg per 1 kg once per day for five days, 60 minutes after last administration, FIG. 8) | number of sweat glands stained in black (perspiration), test B, oral-5 days vs Pre (C57BL6 mouse; oral 2 mg per 1 kg once per day for five days, FIG. 9)
1 | CC(=O)OCC[N+](C)(C)C [acetylcholine] | mTOR was activated | – | – | –
2 | CO[C@H]1C[C@@H]2CC[C@@H](C)[C@@](O)(O2)C(=O)C(=O)N2CCCC[C@H]2C(=O)O[C@H]([C@H](C)C[C@@H]2CC[C@@H](O)[C@H](OC)C2)CC(=O)[C@H](C)/C=C(\C)[C@@H](O)[C@@H](OC)C(=O)[C@H](C)C[C@H](C)/C=C/C=C/C=C/1C [Rapamycin, rapamycin] | – | restored to the amount before the mTOR inhibitor was orally administered | inhibited | inhibited
